Assay [1] has as its target T1, PHB1-GFP (human) (UniProt P35232).
T1 sequence: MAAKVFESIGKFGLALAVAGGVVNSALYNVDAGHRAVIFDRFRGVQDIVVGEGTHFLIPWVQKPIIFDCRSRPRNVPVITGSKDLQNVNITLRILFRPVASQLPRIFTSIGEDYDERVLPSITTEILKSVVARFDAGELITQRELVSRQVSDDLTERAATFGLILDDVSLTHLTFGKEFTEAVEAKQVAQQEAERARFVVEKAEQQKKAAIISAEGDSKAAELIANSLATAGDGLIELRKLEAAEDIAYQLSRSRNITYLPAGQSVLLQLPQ
Nature of the assay: co-IP; GFP-trap Sepharose beads; HEK293 lysates co-expressing the GFP-tagged refProt or GFP with the Flag-tagged altProt; immunoblot. On the technique in general: Immunoblotting shows a protein as a band on a membrane.

The target of assay [2] is IP_762813-Flag (human). Nature of the assay: co-IP; Anti-FLAG M2 magnetic beads; HEK293 lysates co-expressing the GFP-tagged refProt and the Flag-tagged altProt or empty vector; 150 mM NaCl, 50 mM Tris pH 7.5, 1% Triton; overnight at 4 °C; for PHB1-GFP and RPL18-GFP stringent wash with 250 mM NaCl and FLAG peptide, elution with FLAG peptide; immunoblot.

Results are given in words; binding and its absence hold for the method and conditions named. Binding seen in cells or lysates may run through a third protein. Binding can be weak; no strength is given. Tags and fused reporters may be left off the sequences shown.

In the case of IP_762813-Flag (human), in assay [1], the binding result was “binds”.

B1: PHB1-GFP (protein, UniProt P35232-1 1-272)
chain: MAAKVFESIGKFGLALAVAGGVVNSALYNVDAGHRAVIFDRFRGVQDIVVGEGTHFLIPWVQKPIIFDCRSRPRNVPVITGSKDLQNVNITLRILFRPVASQLPRIFTSIGEDYDERVLPSITTEILKSVVARFDAGELITQRELVSRQVSDDLTERAATFGLILDDVSLTHLTFGKEFTEAVEAKQVAQQEAERARFVVEKAEQQKKAAIISAEGDSKAAELIANSLATAGDGLIELRKLEAAEDIAYQLSRSRNITYLPAGQSVLLQLPQ
As to B1, the binding result in assay [2] is listed as “binds”.

(Values after PMC10787177.)
